According to publication PMC5941314:
Results are given in words; binding and its absence hold for the method and conditions named. Some binding calls cover weakened binding; strength is not graded here.

Sequences of proteins named here, by UniProt entry; tags and fusion partners are left off. Residues count along the entry.
UniProt Q8ND25, residues 139-227: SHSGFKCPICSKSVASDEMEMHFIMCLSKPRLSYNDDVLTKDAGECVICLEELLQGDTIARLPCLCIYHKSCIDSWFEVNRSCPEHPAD
UniProt P61088: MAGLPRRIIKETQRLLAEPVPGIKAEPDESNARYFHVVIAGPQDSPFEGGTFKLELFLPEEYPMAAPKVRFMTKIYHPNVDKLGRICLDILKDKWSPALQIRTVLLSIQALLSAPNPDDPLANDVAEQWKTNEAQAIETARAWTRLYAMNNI

Key:
[1] = target: ZNRF1^CTD (C-terminal domain of ZNRF1, residues 139–227) (UniProt Q8ND25); assay: crystal structure; SEC-purified ZNRF1^CTD : Ube2N complex; hanging drop, 20°C, 0.2 M magnesium formate, 20% PEG 3350; Zn SAD phasing; 1.47 Å; both purified
[2] = target: ZNRF1^CTD (C-terminal domain of ZNRF1, residues 139–227) (UniProt Q8ND25); assay: SEC; analytical, Superdex 75 10/300 GL; 20 mM Na-HEPES pH 7.7, 150 mM NaCl, 0.5 mM DTT; calibrated with molecular mass markers; both purified

binding [1]: binds
binding [2]: binds
Substance: Ube2N (from UniProt P61088 1-152) (enzyme)
